PubChem BioAssay AID1671195 | Yale University | 2021
Here is an unselected part of about 22,000 reagents. About 1,510 of them (6.9%) count as active. 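Active includes knockdowns raising or lowering LDL uptake; positive z-scores mean more uptake, negative mean less.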 Reagent sequences are not shown.

- Screen: 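Genes whose knockdown alters LDL uptake in liver cancer cells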 (primary screen)
- System: human Huh7 hepatoma cells
- Knock-down reagent: siRNA pool against human genes, 18 nM
- Time to read-out: about 2 to 2.5 days of knockdown, then 8 h LDL uptake
- Treatment: DiI-labelled LDL at 30 µg/ml for 8 h, in lipoprotein-deficient serum medium
- Detection: 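Per-cell DiI-LDL intensity by automated imaging; well means scaled to the plate median and given as a robust z-score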
- Direction: robust z-score: higher = more LDL uptake after knockdown
- Rule for the call: 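a gene counts as active if at least two replicate z-scores exceed ±2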

After knock-down of PRAC2 (GeneID 360205) the results were robust z-score, replicate 1 = -1.79; robust z-score, replicate 2 = -1.35; robust z-score, replicate 3 = -1.6; inactive.
GPR34 (GeneID 2857) showed robust z-score, replicate 1 = 0.0594; robust z-score, replicate 2 = -0.526; robust z-score, replicate 3 = -0.496; inactive.
LOC440110 (retired record) (GeneID 440110) showed robust z-score, replicate 1 = -0.511; robust z-score, replicate 2 = -0.0412; robust z-score, replicate 3 = -0.384; inactive.
Depletion of FLOT2 (GeneID 2319) resulted in: robust z-score, replicate 1 = -0.0917; robust z-score, replicate 2 = -0.53; robust z-score, replicate 3 = -0.472; inactive.
Depletion of NRGN (GeneID 4900) resulted in: robust z-score, replicate 1 = -0.0593; robust z-score, replicate 2 = -1.26; robust z-score, replicate 3 = -0.935; inactive.
With knock-down of GPR107 (GeneID 57720), the screen gave robust z-score, replicate 1 = 0.757; robust z-score, replicate 2 = 2.08; robust z-score, replicate 3 = 1.53; inactive.
For ECD (GeneID 11319), the values are robust z-score, replicate 1 = 2.48; robust z-score, replicate 2 = 1.17; robust z-score, replicate 3 = 2.78; active.
AP4S1 (GeneID 11154) gave robust z-score, replicate 1 = -1.55; robust z-score, replicate 2 = -0.984; robust z-score, replicate 3 = -1.07; inactive.
After knock-down of CLCN1 (GeneID 1180), the record shows robust z-score, replicate 1 = 0.137; robust z-score, replicate 2 = -0.823; robust z-score, replicate 3 = 0.273; inactive.
After knock-down of FGF14 (GeneID 2259), the record shows robust z-score, replicate 1 = -0.372; robust z-score, replicate 2 = -0.377; robust z-score, replicate 3 = -0.435; inactive.
NTRK3 (GeneID 4916) scored robust z-score, replicate 1 = -1.55; robust z-score, replicate 2 = -0.618; robust z-score, replicate 3 = -2.29; inactive.
Against ZNF875 (GeneID 284459), the entry reads robust z-score, replicate 1 = 0.509; robust z-score, replicate 2 = -0.161; robust z-score, replicate 3 = -0.42; inactive.
For C2orf69 (GeneID 205327), the entry reads robust z-score, replicate 1 = 0.581; robust z-score, replicate 2 = -0.111; robust z-score, replicate 3 = 0.28; inactive.
MAMDC4 (GeneID 158056) gave robust z-score, replicate 1 = -1.24; robust z-score, replicate 2 = -1.01; robust z-score, replicate 3 = -1.17; inactive.

Limited to “robust z-score, replicate 3” (2 entries from above):
CLCN1 (GeneID 1180): 0.273
FGF14 (GeneID 2259): -0.435

The list goes on.
Against LMF2 (GeneID 91289), the values are robust z-score, replicate 1 = -0.293; robust z-score, replicate 2 = -0.142; robust z-score, replicate 3 = -0.111; inactive.
Depletion of PLBD2 (GeneID 196463) resulted in: robust z-score, replicate 1 = -0.68; robust z-score, replicate 2 = -1.08; robust z-score, replicate 3 = 0.42; inactive.
IL1RN (GeneID 3557) gave robust z-score, replicate 1 = 0.743; robust z-score, replicate 2 = 0.664; robust z-score, replicate 3 = 0.285; inactive.
With knock-down of CBX1 (GeneID 10951), the screen gave robust z-score, replicate 1 = 0.554; robust z-score, replicate 2 = 1.26; robust z-score, replicate 3 = 0.347; inactive.
CLDN11 (GeneID 5010) showed robust z-score, replicate 1 = -0.218; robust z-score, replicate 2 = -0.681; robust z-score, replicate 3 = -0.477; inactive.
MED26 (GeneID 9441) gave robust z-score, replicate 1 = -0.856; robust z-score, replicate 2 = -0.614; robust z-score, replicate 3 = -0.75; inactive.
For GBP5 (GeneID 115362), the values are robust z-score, replicate 1 = -0.851; robust z-score, replicate 2 = -1.65; robust z-score, replicate 3 = -1.22; inactive.
With knock-down of TPH2 (GeneID 121278), the record shows robust z-score, replicate 1 = -0.871; robust z-score, replicate 2 = -1.15; robust z-score, replicate 3 = -1.78; inactive.
Knock-down of POLB (GeneID 5423) resulted in: robust z-score, replicate 1 = -0.651; robust z-score, replicate 2 = -0.804; robust z-score, replicate 3 = -0.811; inactive.
After knock-down of LINC01591 (GeneID 286094), the screen gave robust z-score, replicate 1 = 1.05; robust z-score, replicate 2 = 1.87; robust z-score, replicate 3 = 1.21; inactive.
For LOC392223 (retired record) (GeneID 392223) the deposit lists robust z-score, replicate 1 = -0.154; robust z-score, replicate 2 = 0.805; robust z-score, replicate 3 = 1.19; inactive.
LOC440476 (retired record) (GeneID 440476) showed robust z-score, replicate 1 = -0.0119; robust z-score, replicate 2 = -0.592; robust z-score, replicate 3 = -0.417; inactive.
Silencing of HIP1 (GeneID 3092) gave: robust z-score, replicate 1 = -0.42; robust z-score, replicate 2 = -2; robust z-score, replicate 3 = -1.04; inactive.
Against MRPL55 (GeneID 128308), the values are robust z-score, replicate 1 = 0.203; robust z-score, replicate 2 = 0.646; robust z-score, replicate 3 = 0.172; inactive.
For BPESC1 (GeneID 60467) the deposit lists robust z-score, replicate 1 = -1.23; robust z-score, replicate 2 = -1.15; robust z-score, replicate 3 = -1.48; inactive.
For DMRTC1 (GeneID 63947) the deposit lists robust z-score, replicate 1 = 0.547; robust z-score, replicate 2 = 0.794; robust z-score, replicate 3 = 0.513; inactive.
